PubChem BioAssay AID686937 – Drosophila RNAi Screening Center – 2013

Screen: 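Genes in the fly needed for secretion of protein constitutively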 (primary screen)
Cells: Drosophila S2 cells expressing secreted horseradish peroxidase
Reagent: long dsRNA against Drosophila genes
Duration: about 5.5 days (5 days dsRNA, then 12 h reporter induction)
Challenge: reporter expression induced after 5 days of dsRNA, read 12 h later; inducer not stated
Read-out: 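After 5 days of dsRNA and 12 h of reporter induction, medium peroxidase read by chemiluminescence and scored as per-plate z-score; higher values mean more reporter released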
Direction: z-score: higher = more reporter secreted into medium
In all, the deposit lists about 23,000 reagents; shown is a random part of those that have a named target and a result. 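Reduced-secretion tags in replicate 1 do not always agree with the z-scores; no criterion for assigning the tags was given.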 Names joined by + are all predicted targets of the reagent. Not given: the amount of reagent.

| gene knocked down | dsRNA | z-score, replicate 1 | z-score, replicate 2 | z-score, replicate 3 | z-score, replicate 4 | phenotype, replicate 1 |
| --- | --- | --- | --- | --- | --- | --- |
| Obp59a (Odorant-binding protein 59a) | DRSC04160 | 0.12 | -0.07 | – | – | – |
| Duox (Dual oxidase) | DRSC00571 | 0.41 | 0.51 | – | – | – |
| CG4377 | DRSC04467 | 0.24 | 0.3 | – | – | – |
| Gpo3 (Glycerophosphate oxidase 3) | DRSC01978 | 0.53 | 0.29 | – | – | – |
| CG12698 | DRSC19485 | 0.19 | 0.34 | – | – | – |
| CG30047 | DRSC05340 | 0.03 | 0.27 | – | – | – |
| nkd (naked cuticle) | DRSC11376 | 0.63 | 0.82 | – | – | – |
| svp (seven up) | DRSC12899 | 0.28 | 0.55 | – | – | – |
| svp (seven up) | DRSC15311 | -4.98 | -4.53 | – | – | reduced secretion |
| svp (seven up) | DRSC17075 | 0.35 | 0.32 | 0.52 | 0.28 | – |
| CG13436 | DRSC06396 | 0.57 | 0.34 | – | – | – |
| Cpr67B (Cuticular protein 67B) | DRSC10373 | 0.62 | 0.43 | – | – | – |
| CG43393 | DRSC03917 | 0.48 | 0.19 | – | – | – |
| alpha-Man-Ic (alpha-Mannosidase class I c) | DRSC21674 | 2.11 | -0.35 | – | – | – |
| CG15578 | DRSC18066 | 0.25 | -0.12 | – | – | – |
| Pif2 (PFTAIRE-interacting factor 2) | DRSC12525 | 0.2 | 0.41 | – | – | – |
| CG3999 | DRSC15534 | 0.2 | 0.3 | – | – | – |
| Usp47 (Ubiquitin specific protease 47) | DRSC11313 | -0.07 | 0.06 | – | – | – |
| Ilp4 (Insulin-like peptide 4) | DRSC10701 | 0.32 | 0.33 | – | – | – |
| CG13862 | DRSC14712 | 0.49 | 0.59 | – | – | – |
| Pax (Paxillin) | DRSC01703 | 0.44 | 0.08 | – | – | – |
| Pax (Paxillin) | DRSC02651 | 0.63 | 0.37 | – | – | – |
| Pax (Paxillin) | DRSC02652 | 0.06 | 0.44 | – | – | – |
| Tbcb (Tubulin-binding cofactor B) | DRSC06067 | 0.48 | 0.1 | – | – | – |
| Cyp309a1 (Cytochrome P450 309a1) | DRSC00747 | 0.41 | 0.31 | – | – | – |
| CG30484 | DRSC05457 | 0.21 | 0.27 | – | – | – |
| Uros1 (Uroporphyrinogen III synthase 1) | DRSC18191 | 0.45 | 0.44 | – | – | – |
| Npc2c (Niemann-Pick type C-2c) | DRSC15523 | 0.33 | -0.56 | – | – | – |
| CG42789 | DRSC13793 | 0.66 | 0.52 | – | – | – |
| CG10195 | DRSC02026 | 0.22 | 0.37 | – | – | – |
| msl-1 (male-specific lethal 1) | DRSC03573 | 0.33 | 0.23 | – | – | – |

Targets above whose target name begins with C or c (13):
| gene knocked down | dsRNA | z-score, replicate 1 | z-score, replicate 2 | z-score, replicate 3 | z-score, replicate 4 | phenotype, replicate 1 |
| --- | --- | --- | --- | --- | --- | --- |
| CG4377 | DRSC04467 | 0.24 | 0.3 | – | – | – |
| CG12698 | DRSC19485 | 0.19 | 0.34 | – | – | – |
| CG30047 | DRSC05340 | 0.03 | 0.27 | – | – | – |
| CG13436 | DRSC06396 | 0.57 | 0.34 | – | – | – |
| Cpr67B (Cuticular protein 67B) | DRSC10373 | 0.62 | 0.43 | – | – | – |
| CG43393 | DRSC03917 | 0.48 | 0.19 | – | – | – |
| CG15578 | DRSC18066 | 0.25 | -0.12 | – | – | – |
| CG3999 | DRSC15534 | 0.2 | 0.3 | – | – | – |
| CG13862 | DRSC14712 | 0.49 | 0.59 | – | – | – |
| Cyp309a1 (Cytochrome P450 309a1) | DRSC00747 | 0.41 | 0.31 | – | – | – |
| CG30484 | DRSC05457 | 0.21 | 0.27 | – | – | – |
| CG42789 | DRSC13793 | 0.66 | 0.52 | – | – | – |
| CG10195 | DRSC02026 | 0.22 | 0.37 | – | – | – |

More entries follow.
| gene knocked down | dsRNA | z-score, replicate 1 | z-score, replicate 2 | z-score, replicate 3 | z-score, replicate 4 | phenotype, replicate 1 |
| --- | --- | --- | --- | --- | --- | --- |
| step (steppke) | DRSC03694 | 1.45 | 0.27 | – | – | – |
| step (steppke) | DRSC03699 | 0.11 | 0.14 | – | – | – |
| CG16704 | DRSC00475 | -0.19 | 0.39 | – | – | – |
| Yeti | DRSC21138 | 0.37 | 0.28 | – | – | – |
| CG1265 | DRSC08288 | 0.51 | 0.04 | – | – | – |
| Cyp318a1 (Cytochrome P450 318a1) | DRSC19784 | 0.31 | 0.31 | – | – | – |
| Cyp313a4 (Cytochrome P450 313a4) | DRSC16627 | 0.25 | 0.21 | – | – | – |
| Alp7 (Alkaline phosphatase 7) | DRSC04355 | -0.12 | -0.09 | – | – | – |
| SCCRO4 (Squamous cell carcinoma-related oncogene 4) | DRSC10671 | 0.41 | 0.3 | – | – | – |
| CG8837 | DRSC00711 | 0.26 | 0.36 | – | – | – |
| CG33342 (HDC15381) | DRSC13662 | 0.51 | 0.37 | – | – | – |
| B9d1 | DRSC14993 | 0.31 | -0.22 | – | – | – |
| milt (milton) | DRSC00965 | 0.17 | 0.43 | – | – | – |
| milt (milton) | DRSC00966 | -0.12 | 0.16 | – | – | – |
| milt (milton) | DRSC02281 | 0 | 0.2 | – | – | – |
| wry (weary) | DRSC00352 | 0.4 | 0.1 | – | – | – |
| wry (weary) | DRSC00456 | -9.07 | 0.38 | – | – | reduced secretion |
| wry (weary) | DRSC22414 | -0.29 | -0.36 | – | – | – |
| CAH1 + Adat1 | DRSC02009 | 0.36 | 0.21 | – | – | – |
| Adgf-A2 (Adenosine deaminase-related growth factor A2) | DRSC09507 | 0.12 | 0.22 | – | – | – |
| CG32301 | DRSC08613 | -0.01 | 0.14 | – | – | – |
| CG13285 | DRSC09960 | 0.24 | 0.13 | – | – | – |
| dsd (distracted) | DRSC13829 | 0.22 | -0.89 | – | – | – |
| dsd (distracted) | DRSC15850 | -0.02 | 0.21 | – | – | – |
| ninaD (neither inactivation nor afterpotential D) | DRSC02886 | 0.14 | 0.3 | – | – | – |
| CG31525 | DRSC12004 | 0.23 | 0.04 | – | – | – |
| CG12499 | DRSC14521 | -0.14 | -0.75 | – | – | – |
| CG13170 | DRSC06298 | 0.15 | 0.06 | – | – | – |
| Nup75 (Nucleoporin 75kD) | DRSC06947 | 0.4 | 0.41 | – | – | – |
| CAH16 (Carbonic anhydrase 16) | DRSC15371 | -0.81 | -1.13 | – | – | – |
| knon (knotted onions) | DRSC07049 | 0.29 | 0.26 | – | – | – |
| Klp98A (Kinesin-like protein at 98A) | DRSC16724 | 0.19 | 0.57 | – | – | – |
| Klp98A (Kinesin-like protein at 98A) | DRSC21834 | -0.28 | 1.68 | – | – | – |
| lncRNA:CR43498 (long non-coding RNA:CR43498) | DRSC17621 | 0.16 | 0.18 | – | – | – |
| SCCRO3 (Squamous cell carcinoma-related oncogene 3) | DRSC06359 | 0.26 | 0.21 | – | – | – |
| CG4592 | DRSC02761 | -0.15 | 0.23 | – | – | – |
| CG32061 | DRSC22605 | 0.26 | -0.18 | – | – | – |
| asrij | DRSC04175 | 0.34 | 0.24 | – | – | – |
| CG33270 | DRSC10584 | -0.04 | -0.1 | – | – | – |
| CG8635 | DRSC07226 | 0.22 | 0.17 | – | – | – |
| hoe2 (hoepel2) | DRSC00459 | 0.16 | 0.3 | – | – | – |
| Dgk (Diacyl glycerol kinase) | DRSC05064 | -0.92 | – | – | – | – |
| Dgk (Diacyl glycerol kinase) | DRSC05065 | 0.47 | – | – | – | – |
| Dgk (Diacyl glycerol kinase) | DRSC06171 | 0.54 | 0.36 | – | – | – |
| Dgk (Diacyl glycerol kinase) | DRSC06782 | 0.29 | 0.3 | 0.52 | 0.39 | – |
| Dgk (Diacyl glycerol kinase) | DRSC22236 | 0.06 | -0.32 | – | – | – |
| GPHR (Golgi pH Regulator) | DRSC07075 | -0.14 | 0.2 | – | – | – |
| CG9896 | DRSC03962 | 0.27 | 0.09 | – | – | – |
| CG9896 | DRSC04594 | 0.21 | 0.13 | – | – | – |
| Taf3 (TBP-associated factor 3) | DRSC17170 | 0.15 | -0.27 | – | – | – |
| S2P (site-2 protease) | DRSC07311 | -0.31 | 0.07 | – | – | – |
